No constants are given. Whether binding was seen depends on the method and setting. Binding seen in cells or lysates may run through a third protein. Some binding calls cover weakened binding; strength is not graded here. Blank lines part the entries; values can stand above or below the substance they belong to.
Columns and labels:
[1] = target: T1, SNAP23 (human (endogenous in SH-SY5Y)) (UniProt O00161); assay: co-IP; SH-SY5Y cells lysed in IP lysis buffer with protease and phosphatase inhibitor cocktails; antibodies and Protein A/G beads at 4°C; eluate by Western blot; cells untreated or treated with Aβ1-42, pcDNA3.1-TIP60, sh-SNAP23 or sh-IKKβ; the precipitating antibody is not told
T1 sequence: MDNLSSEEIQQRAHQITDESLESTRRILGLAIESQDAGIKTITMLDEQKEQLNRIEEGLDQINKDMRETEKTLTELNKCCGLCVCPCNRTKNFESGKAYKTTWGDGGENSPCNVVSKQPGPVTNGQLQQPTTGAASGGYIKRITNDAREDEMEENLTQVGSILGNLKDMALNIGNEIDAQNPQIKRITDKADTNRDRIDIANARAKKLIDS

Amino acid sequences for entries named in this document (tags omitted).
UniProt Q06945: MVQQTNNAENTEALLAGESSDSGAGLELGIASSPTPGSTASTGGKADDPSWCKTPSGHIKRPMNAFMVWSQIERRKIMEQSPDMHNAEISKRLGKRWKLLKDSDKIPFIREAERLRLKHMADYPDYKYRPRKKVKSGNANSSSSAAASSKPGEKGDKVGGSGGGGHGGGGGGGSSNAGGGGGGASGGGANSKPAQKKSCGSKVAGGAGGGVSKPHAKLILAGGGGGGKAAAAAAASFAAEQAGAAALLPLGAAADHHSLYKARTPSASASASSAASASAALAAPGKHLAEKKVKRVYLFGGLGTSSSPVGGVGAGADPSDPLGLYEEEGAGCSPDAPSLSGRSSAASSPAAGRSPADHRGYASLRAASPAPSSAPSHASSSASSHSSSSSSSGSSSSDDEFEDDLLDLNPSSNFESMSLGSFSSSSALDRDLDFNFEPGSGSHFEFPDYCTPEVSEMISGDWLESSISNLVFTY
UniProt Q06831: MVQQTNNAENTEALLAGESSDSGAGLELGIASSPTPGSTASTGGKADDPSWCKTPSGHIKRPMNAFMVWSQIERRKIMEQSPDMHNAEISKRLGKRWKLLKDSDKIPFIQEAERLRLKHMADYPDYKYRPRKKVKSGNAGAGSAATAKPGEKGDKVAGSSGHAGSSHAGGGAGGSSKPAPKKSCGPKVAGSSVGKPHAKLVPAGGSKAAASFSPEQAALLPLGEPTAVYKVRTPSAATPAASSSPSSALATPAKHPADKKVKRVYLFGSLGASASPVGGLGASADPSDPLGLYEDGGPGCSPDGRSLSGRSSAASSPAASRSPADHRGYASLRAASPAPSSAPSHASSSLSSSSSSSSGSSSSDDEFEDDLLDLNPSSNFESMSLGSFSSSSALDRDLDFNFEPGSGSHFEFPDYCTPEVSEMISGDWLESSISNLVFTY
UniProt P56962: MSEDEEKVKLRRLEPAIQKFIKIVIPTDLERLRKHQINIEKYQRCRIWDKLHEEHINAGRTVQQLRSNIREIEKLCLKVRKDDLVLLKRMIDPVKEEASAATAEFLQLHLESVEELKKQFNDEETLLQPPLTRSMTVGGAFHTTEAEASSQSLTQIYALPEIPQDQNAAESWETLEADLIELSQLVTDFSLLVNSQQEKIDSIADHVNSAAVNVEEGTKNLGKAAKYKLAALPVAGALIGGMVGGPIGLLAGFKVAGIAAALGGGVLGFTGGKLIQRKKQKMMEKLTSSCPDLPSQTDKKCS
UniProt Q92993: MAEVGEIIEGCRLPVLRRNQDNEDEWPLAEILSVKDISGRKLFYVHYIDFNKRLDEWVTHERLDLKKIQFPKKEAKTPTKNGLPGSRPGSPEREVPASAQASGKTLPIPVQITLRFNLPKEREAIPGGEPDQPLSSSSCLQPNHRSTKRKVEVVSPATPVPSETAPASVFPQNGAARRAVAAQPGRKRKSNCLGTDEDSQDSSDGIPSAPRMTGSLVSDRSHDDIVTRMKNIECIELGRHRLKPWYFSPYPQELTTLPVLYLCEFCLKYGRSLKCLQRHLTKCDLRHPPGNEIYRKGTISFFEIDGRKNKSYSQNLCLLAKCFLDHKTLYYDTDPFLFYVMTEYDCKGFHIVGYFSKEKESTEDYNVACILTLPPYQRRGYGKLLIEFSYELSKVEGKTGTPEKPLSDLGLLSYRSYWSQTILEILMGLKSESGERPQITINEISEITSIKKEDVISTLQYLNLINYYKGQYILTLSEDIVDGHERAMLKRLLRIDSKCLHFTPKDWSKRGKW
UniProt Q8CHK4: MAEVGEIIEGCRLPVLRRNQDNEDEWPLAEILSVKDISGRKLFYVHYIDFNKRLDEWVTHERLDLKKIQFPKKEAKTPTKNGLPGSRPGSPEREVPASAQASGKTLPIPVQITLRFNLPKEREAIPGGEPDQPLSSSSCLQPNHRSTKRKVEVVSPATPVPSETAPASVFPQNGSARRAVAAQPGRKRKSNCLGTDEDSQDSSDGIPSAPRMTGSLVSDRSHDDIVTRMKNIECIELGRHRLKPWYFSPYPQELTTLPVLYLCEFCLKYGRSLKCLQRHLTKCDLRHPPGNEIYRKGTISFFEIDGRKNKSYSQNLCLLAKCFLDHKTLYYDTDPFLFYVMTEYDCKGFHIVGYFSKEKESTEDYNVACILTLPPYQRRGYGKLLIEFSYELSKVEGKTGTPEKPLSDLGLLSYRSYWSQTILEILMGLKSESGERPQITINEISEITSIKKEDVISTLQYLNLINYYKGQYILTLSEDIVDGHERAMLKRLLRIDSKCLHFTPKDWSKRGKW

[2] = target: SOX4 (human (endogenous in SH-SY5Y)) (UniProt Q06945); assay: as above
[3] = target: SOX4 (mouse) (mouse (endogenous in APP/PS1 and wild-type mice)) (UniProt Q06831); assay: co-IP; tissue of control, AD (APP/PS1) and AAV-TIP60-injected mice; tissue, buffer and precipitating antibody not told

binding [1]: binds
Substance: STX17 (from UniProt P56962 1-302)

binding [2]: binds
Substance: TIP60 (from UniProt Q92993 1-513) (enzyme)

binding [3]: binds
Substance: TIP60 (mouse) (from UniProt Q8CHK4 1-513) (enzyme)

From article PMC11537769
